No constants are given. Whether binding was seen depends on the method and setting. Binding seen in cells or lysates may run through a third protein. Some results given as binding are weak or reduced against the parent protein; the word gives no strength.
Molecular target: GST-NS1 A/Udorn/72 wt (influenza A virus A/Udorn/72) (UniProt P03495)
Assay: pull-down; only the target purified

Sequences of proteins named here, by UniProt entry; tags and fusion partners are left off.
UniProt P03495: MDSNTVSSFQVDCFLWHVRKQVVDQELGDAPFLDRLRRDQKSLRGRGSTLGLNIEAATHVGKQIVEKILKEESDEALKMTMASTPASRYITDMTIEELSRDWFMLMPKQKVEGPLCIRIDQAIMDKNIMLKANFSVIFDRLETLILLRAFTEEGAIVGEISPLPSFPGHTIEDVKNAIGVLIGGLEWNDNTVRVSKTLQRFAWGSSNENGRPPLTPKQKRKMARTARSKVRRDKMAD
UniProt O95639: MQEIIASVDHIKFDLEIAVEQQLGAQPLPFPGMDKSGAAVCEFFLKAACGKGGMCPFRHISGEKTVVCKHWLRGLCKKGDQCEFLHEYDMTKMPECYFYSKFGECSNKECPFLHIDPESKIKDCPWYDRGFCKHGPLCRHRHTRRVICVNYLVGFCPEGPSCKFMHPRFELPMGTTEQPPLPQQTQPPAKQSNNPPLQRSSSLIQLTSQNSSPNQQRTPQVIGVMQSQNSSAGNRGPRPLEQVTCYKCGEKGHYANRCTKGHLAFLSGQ

CPSF30 (from UniProt O95639 1-269)
binding: binds

Reference: article PMC4112715
